Test [1] addresses full-length mCherry-tagged TSG101 (UniProt Q99816). The experiment in a line: co-IP; immunoprecipitation of mCherry from whole-cell extracts of U2-OS cells transfected with full-length mCherry-TSG101; with or without irradiation (20 Gy, 45 min before analysis).
The target of test [2] is Poly(ADP-ribose) polymerase 1 (PARP1), endogenous (human (endogenous in U2-OS)) (UniProt P09874). The experiment in a line: proximity ligation; DuoLink PLA with PARP1 and TSG101 primary antibodies in fixed, permeabilised U2-OS cells; unstimulated, etoposide (50 uM, 10 min), or etoposide plus olaparib (10 uM, 24 h).
The target of the next test is EGFP-tagged PARP1 (UniProt P09874). Description: co-IP; GFP-trap immunoprecipitation of EGFP-PARP1 from whole-cell extracts (RIPA buffer) of U2-OS cells cotransfected with mCherry-tagged TSG101 deletion constructs.

Amino acid sequences for entries named in this document (tags omitted). A change or cut given only in a name is not applied to a line headed by its entry.
UniProt Q99816: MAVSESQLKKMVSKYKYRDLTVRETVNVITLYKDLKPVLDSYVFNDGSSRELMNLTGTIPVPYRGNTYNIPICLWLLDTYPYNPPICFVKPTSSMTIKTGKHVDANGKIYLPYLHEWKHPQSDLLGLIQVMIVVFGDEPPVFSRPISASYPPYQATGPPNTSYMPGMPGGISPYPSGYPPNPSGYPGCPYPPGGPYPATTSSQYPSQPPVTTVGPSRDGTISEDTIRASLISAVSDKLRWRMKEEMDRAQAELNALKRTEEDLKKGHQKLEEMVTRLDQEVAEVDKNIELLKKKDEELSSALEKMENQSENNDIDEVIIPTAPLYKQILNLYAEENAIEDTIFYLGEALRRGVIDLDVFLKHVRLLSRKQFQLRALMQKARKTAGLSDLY
UniProt P09874: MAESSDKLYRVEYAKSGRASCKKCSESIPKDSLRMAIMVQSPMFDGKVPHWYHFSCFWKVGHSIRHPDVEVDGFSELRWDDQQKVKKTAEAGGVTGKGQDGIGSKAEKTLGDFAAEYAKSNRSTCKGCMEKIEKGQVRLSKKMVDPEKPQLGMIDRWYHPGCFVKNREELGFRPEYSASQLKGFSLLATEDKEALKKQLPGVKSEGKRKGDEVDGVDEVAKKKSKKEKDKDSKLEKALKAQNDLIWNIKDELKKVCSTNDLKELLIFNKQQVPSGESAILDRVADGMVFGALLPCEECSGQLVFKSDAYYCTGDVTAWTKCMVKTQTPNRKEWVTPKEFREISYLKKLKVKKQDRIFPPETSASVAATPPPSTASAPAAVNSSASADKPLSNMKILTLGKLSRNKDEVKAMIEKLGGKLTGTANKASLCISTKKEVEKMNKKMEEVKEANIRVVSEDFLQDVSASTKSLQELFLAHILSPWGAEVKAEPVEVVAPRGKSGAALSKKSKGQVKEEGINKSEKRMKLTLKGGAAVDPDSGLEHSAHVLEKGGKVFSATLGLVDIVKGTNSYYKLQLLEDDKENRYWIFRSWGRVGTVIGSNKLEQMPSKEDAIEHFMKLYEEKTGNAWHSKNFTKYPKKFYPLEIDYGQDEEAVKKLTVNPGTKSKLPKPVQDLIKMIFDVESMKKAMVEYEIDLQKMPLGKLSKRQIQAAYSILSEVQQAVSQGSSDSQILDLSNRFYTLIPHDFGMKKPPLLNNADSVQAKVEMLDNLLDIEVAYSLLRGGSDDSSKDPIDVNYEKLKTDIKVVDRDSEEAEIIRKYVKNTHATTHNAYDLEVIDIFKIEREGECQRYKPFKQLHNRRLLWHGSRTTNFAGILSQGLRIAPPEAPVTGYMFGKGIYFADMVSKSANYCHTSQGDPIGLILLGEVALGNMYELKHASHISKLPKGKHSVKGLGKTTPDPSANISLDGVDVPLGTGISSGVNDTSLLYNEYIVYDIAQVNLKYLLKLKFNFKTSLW

These are yes or no findings as the source states them, for the method shown. Binding seen in cells or lysates may run through a third protein. Some results given as binding are weak or reduced against the parent protein; the word gives no strength.

With “Poly(ADP-ribose) polymerase 1 (PARP1), endogenous (from UniProt P09874 1-1014) (enzyme)”, the binding entry in test [1] is “binds”.

For the substance “TSG101 (tumor susceptibility gene 101 product), endogenous (from UniProt Q99816 1-390)”, in test [2], the binding result is recorded as “binds”.

On to “UEV domain of TSG101 (from UniProt Q99816 2-145) (domain or fragment)”, for which the binding result with EGFP-tagged PARP1 is given as “no binding”.

(Values after article PMC9627669.)
